Experimental data taken from the supplement of paper PMC12823440, “Inhibitors supercharge kinase turnover through native proteolytic circuits” (Nature, 2025).
Counter-ions that a name gives are not always drawn. Some of the results follow. Hit calls seldom repeat between salt and free forms of one compound.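 In K562 cells expressing nanoluciferase-fused kinases, luminescence was recorded at 4 h intervals between 2 and 18 h, normalized as percent of control with DMSO at 100% and a positive control at 0%. A significant (2 sigma) signal drop marks a time point as decreased. The authors' rule for a hit is not shown and takes in more than the number of time points.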

The chains behind the UniProt entries cited, without tags or fusion partners. Where a name states a change or a piece, a line headed by the entry shows the natural chain unless it says otherwise.
UniProt O75460: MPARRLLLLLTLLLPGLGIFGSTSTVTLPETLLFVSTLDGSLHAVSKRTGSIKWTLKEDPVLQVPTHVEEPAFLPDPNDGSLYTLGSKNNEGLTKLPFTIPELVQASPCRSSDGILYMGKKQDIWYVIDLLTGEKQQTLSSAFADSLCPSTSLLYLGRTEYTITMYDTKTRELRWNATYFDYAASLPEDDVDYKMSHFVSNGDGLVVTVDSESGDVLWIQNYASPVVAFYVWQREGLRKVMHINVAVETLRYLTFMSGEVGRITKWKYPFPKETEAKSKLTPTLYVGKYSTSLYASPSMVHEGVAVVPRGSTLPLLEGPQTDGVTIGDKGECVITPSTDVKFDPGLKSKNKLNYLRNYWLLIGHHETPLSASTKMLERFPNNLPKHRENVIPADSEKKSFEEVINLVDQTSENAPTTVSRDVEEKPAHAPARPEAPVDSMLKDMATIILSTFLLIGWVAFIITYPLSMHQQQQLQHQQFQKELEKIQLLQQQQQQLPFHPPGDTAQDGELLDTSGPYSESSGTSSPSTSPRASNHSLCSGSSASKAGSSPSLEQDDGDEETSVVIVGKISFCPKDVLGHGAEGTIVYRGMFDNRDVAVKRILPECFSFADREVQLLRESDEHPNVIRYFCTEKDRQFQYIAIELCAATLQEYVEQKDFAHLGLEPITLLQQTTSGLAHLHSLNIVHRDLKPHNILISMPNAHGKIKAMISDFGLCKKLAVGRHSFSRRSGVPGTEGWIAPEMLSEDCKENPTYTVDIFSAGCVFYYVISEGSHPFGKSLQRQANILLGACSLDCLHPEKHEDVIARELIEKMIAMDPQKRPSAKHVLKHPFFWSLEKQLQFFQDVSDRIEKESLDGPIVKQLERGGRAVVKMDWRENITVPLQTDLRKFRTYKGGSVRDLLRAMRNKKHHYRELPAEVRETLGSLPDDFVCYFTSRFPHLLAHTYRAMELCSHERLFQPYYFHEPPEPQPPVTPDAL
UniProt P11362, whole entry, looked up: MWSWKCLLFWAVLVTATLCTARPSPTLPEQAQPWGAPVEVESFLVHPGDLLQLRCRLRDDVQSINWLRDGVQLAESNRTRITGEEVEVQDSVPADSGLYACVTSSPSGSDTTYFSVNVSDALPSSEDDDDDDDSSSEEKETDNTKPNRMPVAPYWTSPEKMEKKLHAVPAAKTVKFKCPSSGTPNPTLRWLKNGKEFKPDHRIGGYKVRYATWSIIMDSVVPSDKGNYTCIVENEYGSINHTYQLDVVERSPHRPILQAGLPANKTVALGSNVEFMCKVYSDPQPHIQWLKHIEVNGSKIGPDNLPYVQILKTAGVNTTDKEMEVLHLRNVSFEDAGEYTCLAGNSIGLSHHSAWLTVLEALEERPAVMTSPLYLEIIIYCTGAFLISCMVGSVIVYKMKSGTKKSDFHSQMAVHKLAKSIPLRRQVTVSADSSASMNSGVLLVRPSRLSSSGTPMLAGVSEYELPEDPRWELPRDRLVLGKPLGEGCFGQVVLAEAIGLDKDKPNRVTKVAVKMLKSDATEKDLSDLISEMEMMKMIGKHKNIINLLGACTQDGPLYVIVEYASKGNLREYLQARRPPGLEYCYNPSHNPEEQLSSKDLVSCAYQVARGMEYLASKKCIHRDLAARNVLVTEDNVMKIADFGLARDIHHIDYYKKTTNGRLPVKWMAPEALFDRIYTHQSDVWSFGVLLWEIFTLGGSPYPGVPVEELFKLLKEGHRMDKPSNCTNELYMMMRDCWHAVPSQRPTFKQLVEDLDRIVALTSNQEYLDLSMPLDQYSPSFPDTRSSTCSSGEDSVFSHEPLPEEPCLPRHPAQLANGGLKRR
UniProt P21802, whole entry, looked up: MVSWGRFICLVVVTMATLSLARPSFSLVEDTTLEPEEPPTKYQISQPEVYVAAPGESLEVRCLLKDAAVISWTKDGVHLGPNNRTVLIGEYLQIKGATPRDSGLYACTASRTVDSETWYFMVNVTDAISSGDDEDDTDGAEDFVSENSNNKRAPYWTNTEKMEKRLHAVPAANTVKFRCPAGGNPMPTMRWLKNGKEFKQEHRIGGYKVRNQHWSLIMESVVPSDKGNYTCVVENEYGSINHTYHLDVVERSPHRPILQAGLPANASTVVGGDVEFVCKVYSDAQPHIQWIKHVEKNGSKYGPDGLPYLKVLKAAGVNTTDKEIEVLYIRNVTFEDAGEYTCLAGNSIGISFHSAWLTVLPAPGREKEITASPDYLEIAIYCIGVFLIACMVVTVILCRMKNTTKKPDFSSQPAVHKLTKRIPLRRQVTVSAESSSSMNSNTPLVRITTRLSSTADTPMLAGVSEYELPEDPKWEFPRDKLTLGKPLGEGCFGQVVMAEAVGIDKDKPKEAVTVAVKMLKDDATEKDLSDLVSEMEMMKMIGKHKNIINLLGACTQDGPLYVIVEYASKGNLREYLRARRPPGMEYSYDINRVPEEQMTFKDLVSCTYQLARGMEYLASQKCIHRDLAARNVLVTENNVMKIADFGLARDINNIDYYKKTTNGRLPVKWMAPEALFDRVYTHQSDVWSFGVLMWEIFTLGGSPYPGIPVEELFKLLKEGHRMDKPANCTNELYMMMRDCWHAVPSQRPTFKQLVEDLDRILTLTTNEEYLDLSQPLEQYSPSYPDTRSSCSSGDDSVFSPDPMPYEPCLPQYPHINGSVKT
UniProt P22607, whole entry, looked up: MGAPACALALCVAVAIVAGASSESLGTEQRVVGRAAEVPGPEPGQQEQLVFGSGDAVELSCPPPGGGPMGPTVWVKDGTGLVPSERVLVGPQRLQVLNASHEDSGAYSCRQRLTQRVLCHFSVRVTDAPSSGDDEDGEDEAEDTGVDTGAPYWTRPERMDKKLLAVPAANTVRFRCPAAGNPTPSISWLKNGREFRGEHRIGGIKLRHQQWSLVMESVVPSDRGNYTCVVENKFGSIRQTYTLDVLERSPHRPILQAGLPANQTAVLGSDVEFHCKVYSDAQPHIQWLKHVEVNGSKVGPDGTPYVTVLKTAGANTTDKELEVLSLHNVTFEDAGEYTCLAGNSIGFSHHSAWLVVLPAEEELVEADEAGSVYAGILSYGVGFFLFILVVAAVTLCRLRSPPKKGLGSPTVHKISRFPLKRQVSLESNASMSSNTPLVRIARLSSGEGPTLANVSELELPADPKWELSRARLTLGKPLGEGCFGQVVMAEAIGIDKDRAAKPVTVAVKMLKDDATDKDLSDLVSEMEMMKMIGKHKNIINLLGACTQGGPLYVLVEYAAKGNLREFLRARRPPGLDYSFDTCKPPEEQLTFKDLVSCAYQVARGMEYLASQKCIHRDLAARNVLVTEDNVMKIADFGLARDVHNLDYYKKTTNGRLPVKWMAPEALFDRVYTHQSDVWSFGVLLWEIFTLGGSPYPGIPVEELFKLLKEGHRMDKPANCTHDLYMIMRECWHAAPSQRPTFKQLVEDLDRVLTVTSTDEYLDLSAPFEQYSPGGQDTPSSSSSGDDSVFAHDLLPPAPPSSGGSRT
UniProt P36888, whole entry: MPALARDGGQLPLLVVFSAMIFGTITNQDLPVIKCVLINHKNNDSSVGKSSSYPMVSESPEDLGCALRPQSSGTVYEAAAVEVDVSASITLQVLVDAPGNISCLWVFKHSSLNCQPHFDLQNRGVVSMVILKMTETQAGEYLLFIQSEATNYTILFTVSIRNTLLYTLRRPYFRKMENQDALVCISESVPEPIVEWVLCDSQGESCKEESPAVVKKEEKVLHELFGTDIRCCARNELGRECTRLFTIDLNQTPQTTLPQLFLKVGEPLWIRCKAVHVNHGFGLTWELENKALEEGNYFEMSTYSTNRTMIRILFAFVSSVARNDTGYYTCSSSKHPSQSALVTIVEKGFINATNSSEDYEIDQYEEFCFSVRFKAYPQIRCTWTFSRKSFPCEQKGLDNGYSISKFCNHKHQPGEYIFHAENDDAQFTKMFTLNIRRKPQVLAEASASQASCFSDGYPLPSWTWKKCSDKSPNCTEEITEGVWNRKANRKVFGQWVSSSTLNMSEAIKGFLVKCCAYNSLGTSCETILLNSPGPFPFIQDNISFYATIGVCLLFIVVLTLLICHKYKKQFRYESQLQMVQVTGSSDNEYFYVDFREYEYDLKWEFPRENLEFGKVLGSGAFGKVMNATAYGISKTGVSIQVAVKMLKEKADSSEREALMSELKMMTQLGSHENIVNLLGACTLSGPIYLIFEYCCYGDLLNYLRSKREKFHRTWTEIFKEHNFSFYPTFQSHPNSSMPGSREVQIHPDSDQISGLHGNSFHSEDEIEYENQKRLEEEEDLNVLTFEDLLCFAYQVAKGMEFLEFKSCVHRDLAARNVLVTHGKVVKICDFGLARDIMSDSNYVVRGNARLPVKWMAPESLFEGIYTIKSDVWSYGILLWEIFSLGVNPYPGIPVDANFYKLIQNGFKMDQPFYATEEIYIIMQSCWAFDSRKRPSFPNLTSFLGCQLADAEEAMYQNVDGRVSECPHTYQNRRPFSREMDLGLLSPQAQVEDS
UniProt P49840: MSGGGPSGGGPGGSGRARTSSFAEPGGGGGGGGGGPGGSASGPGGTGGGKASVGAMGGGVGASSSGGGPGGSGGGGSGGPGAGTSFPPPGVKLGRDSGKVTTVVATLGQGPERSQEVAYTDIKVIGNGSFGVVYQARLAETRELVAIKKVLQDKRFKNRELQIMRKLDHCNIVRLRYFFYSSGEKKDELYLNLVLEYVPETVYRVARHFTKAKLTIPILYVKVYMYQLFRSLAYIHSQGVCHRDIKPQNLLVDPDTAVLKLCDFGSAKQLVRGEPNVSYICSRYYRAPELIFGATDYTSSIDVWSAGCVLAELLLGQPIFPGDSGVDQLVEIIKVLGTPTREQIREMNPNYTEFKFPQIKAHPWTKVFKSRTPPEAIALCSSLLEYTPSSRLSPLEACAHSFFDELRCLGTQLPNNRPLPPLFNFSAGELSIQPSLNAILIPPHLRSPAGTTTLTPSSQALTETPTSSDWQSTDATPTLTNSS
UniProt P14616: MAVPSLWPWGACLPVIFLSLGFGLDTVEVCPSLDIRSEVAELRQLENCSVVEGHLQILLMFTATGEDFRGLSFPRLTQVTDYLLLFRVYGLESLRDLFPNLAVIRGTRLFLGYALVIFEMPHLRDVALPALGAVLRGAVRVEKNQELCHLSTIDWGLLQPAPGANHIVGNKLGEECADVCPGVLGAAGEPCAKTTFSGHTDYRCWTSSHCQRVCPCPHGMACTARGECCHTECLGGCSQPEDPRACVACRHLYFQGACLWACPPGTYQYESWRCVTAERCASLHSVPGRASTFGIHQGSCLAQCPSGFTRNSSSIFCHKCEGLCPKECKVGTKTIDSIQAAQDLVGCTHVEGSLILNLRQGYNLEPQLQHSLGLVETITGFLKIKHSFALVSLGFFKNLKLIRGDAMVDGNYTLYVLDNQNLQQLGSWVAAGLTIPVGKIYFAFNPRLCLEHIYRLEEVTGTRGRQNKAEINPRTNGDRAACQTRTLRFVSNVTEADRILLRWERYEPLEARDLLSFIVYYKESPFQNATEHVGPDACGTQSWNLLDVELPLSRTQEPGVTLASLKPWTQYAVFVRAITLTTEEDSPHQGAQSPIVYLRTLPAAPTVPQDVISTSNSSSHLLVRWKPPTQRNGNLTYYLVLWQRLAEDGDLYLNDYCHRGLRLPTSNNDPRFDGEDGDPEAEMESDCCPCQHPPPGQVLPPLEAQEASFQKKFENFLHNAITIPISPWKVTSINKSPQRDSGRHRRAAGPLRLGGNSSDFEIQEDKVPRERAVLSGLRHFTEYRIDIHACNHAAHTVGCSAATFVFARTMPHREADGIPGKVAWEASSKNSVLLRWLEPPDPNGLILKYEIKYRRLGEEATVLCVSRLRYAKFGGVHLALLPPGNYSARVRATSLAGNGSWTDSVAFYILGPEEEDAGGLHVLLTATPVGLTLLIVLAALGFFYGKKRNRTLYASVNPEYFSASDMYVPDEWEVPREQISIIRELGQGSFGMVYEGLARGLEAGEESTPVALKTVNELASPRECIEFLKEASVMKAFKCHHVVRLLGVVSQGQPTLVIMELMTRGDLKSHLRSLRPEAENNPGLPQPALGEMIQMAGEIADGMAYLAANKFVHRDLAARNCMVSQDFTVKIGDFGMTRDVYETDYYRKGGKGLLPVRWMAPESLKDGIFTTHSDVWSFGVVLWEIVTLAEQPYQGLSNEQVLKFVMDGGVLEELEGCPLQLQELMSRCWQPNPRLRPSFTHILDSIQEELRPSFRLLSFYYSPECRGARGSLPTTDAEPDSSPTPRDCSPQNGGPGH

Assays:
Test in all cases: kinase-Nluc reporter destabilization hit call (1 = scored as downregulated) (binary); higher = compound decreases kinase abundance
Conditions in all cases: K562; 2-18 h
ERN1 = ERN1 (UniProt O75460)
FGFR1 = FGFR1 (UniProt P11362)
FGFR2 = FGFR2 (UniProt P21802)
FGFR3 = FGFR3 (UniProt P22607)
FGR = FGR (UniProt P09769)
FLT3 = FLT3 (UniProt P36888)
FYN = FYN (UniProt P06241)
GSK3A = GSK3A (UniProt P49840)
HER2 = HER2 (UniProt P04626)
INSRR = INSRR (UniProt P14616)

Measured: kinase-Nluc reporter destabilization hit call

CC(C)(C)Cc1[nH]nc2c1[C@@](C)(c1ccccc1)C1=C(CC(C)(C)CC1=O)N2 (10 µM)
inactive: ERN1 = 0 | FGFR1 = 0 | FGFR2 = 0 | FGFR3 = 0 | FGR 0 | FLT3 = 0 | FYN 0 | GSK3A 0 | HER2 = 0 | INSRR 0

CO[C@H]1CC[C@H](N2C(=O)CNc3ncc(-c4ccc(C(C)(C)O)nc4)nc32)CC1 (2.5 µM)
inactive: ERN1 = 0 | FGFR1 = 0 | FGFR2 = 0 | FGFR3 = 0 | FGR 0 | FLT3 = 0 | FYN 0 | GSK3A 0 | HER2 = 0 | INSRR 0

Cn1c(CNc2cccc(C(=O)NCc3ccccc3C(F)(F)F)c2)nnc1-c1ccncc1 (10 µM)
inactive: ERN1 = 0 | FGFR1 = 0 | FGFR2 = 0 | FGFR3 = 0 | FGR 0 | FLT3 = 0 | FYN 0 | GSK3A 0 | HER2 = 0 | INSRR 0

Brc1ccc(CSc2nc3ccccc3o2)cc1 [BMP signaling agonist sb4] (10 µM)
inactive: ERN1 = 0 | FGFR1 = 0 | FGFR2 = 0 | FGFR3 = 0 | FGR 0 | FLT3 = 0 | FYN 0 | GSK3A 0 | HER2 = 0 | INSRR 0

COC(=O)/C=C/c1ccccc1 [Methyl cinnamate] (10 µM)
inactive: ERN1 = 0 | FGFR1 = 0 | FGFR2 = 0 | FGFR3 = 0 | FGR 0 | FLT3 = 0 | FYN 0 | GSK3A 0 | HER2 = 0 | INSRR 0

COCCOc1ccc2c(c1)ncn2-c1ccc2cccc(N3CCC(N)CC3)c2n1 (10 µM)
inactive: ERN1 = 0 | FGFR1 = 0 | FGFR2 = 0 | FGFR3 = 0 | FGR 0 | FLT3 = 0 | FYN 0 | GSK3A 0 | HER2 = 0 | INSRR 0

Cc1cc(C)cc(NC(N)=Nc2ccccc2C(F)(F)F)c1 (10 µM)
inactive: ERN1 = 0 | FGFR1 = 0 | FGFR2 = 0 | FGFR3 = 0 | FGR 0 | FLT3 = 0 | FYN 0 | GSK3A 0 | HER2 = 0 | INSRR 0

COc1cc2c(cc1OC)/C(=C/c1ccc(O)cc1)C(=O)N2 (10 µM)
inactive: ERN1 = 0 | FGFR1 = 0 | FGFR2 = 0 | FGFR3 = 0 | FGR 0 | FLT3 = 0 | FYN 0 | GSK3A 0 | HER2 = 0 | INSRR 0

CN1CCC(CNc2ccc3ncc(-c4cccc(OC(F)(F)F)c4)n3n2)CC1 (2.5 µM)
inactive: ERN1 = 0 | FGFR1 = 0 | FGFR2 = 0 | FGFR3 = 0 | FGR 0 | FLT3 = 0 | FYN 0 | GSK3A 0 | HER2 = 0 | INSRR 0

Cc1cnc(NC(=O)c2cc(Oc3cnc(C(=O)N(C)C)nc3)c3cc(C)oc3c2)cn1 (10 µM)
inactive: ERN1 = 0 | FGFR1 = 0 | FGFR2 = 0 | FGFR3 = 0 | FGR 0 | FLT3 = 0 | FYN 0 | GSK3A 0 | HER2 = 0 | INSRR 0

CCCCCC(=O)N[C@@H](Cc1ccc(O)cc1)C(=O)OC (10 µM)
inactive: ERN1 = 0 | FGFR1 = 0 | FGFR2 = 0 | FGFR3 = 0 | FGR 0 | FLT3 = 0 | FYN 0 | GSK3A 0 | HER2 = 0 | INSRR 0

COc1cc2ncnc(Nc3ccc(O)c(Br)c3)c2cc1OC (10 µM)
inactive: ERN1 = 0 | FGFR1 = 0 | FGFR2 = 0 | FGFR3 = 0 | FGR 0 | FLT3 = 0 | FYN 0 | GSK3A 0 | HER2 = 0 | INSRR 0

Cc1cc(C(=O)NOCCO)c(Nc2ccc(I)cc2F)n(C)c1=O (10 µM)
inactive: ERN1 = 0 | FGFR1 = 0 | FGFR2 = 0 | FGFR3 = 0 | FGR 0 | FLT3 = 0 | FYN 0 | GSK3A 0 | HER2 = 0 | INSRR 0

CCn1c(-c2nonc2N)nc2c(C#CC(C)(C)O)ncc(OC[C@H]3CCCNC3)c21 (10 µM)
inactive: ERN1 = 0 | FGFR1 = 0 | FGFR2 = 0 | FGFR3 = 0 | FGR 0 | FLT3 = 0 | FYN 0 | GSK3A 0 | HER2 = 0 | INSRR 0

Cc1cc(-n2c(=O)ccc3c[nH]c4nccc-4c32)ccc1F (10 µM)
inactive: ERN1 = 0 | FGFR1 = 0 | FGFR2 = 0 | FGFR3 = 0 | FGR 0 | FLT3 = 0 | FYN 0 | GSK3A 0 | HER2 = 0 | INSRR 0

CC1CN(CC2CCN(Cc3ccccc3)CC2)C(=O)N(c2cccc(C(=N)N)c2)C1 (stereo not given) (10 µM)
inactive: ERN1 = 0 | FGFR1 = 0 | FGFR2 = 0 | FGFR3 = 0 | FGR 0 | FLT3 = 0 | FYN 0 | GSK3A 0 | HER2 = 0 | INSRR 0

Cc1cccc(COc2cccc(/C=C3\C(=O)NN(c4ccccc4)C3=O)c2)c1 (10 µM)
inactive: ERN1 = 0 | FGFR1 = 0 | FGFR2 = 0 | FGFR3 = 0 | FGR 0 | FLT3 = 0 | FYN 0 | GSK3A 0 | HER2 = 0 | INSRR 0

C=CC(=O)Nc1cc(Nc2nccc(-c3cn(C)c4ccccc34)n2)c(OC)cc1OCCN(C)C [Rezivertinib] (2.5 µM)
inactive: ERN1 = 0 | FGFR1 = 0 | FGFR2 = 0 | FGFR3 = 0 | FGR 0 | FLT3 = 0 | FYN 0 | GSK3A 0 | HER2 = 0 | INSRR 0

NS(=O)(=O)c1ccc(Nc2nc(-c3cccc(-c4ccccc4)c3)c3[nH]cnc3n2)cc1 (10 µM)
inactive: ERN1 = 0 | FGFR1 = 0 | FGFR2 = 0 | FGFR3 = 0 | FGR 0 | FLT3 = 0 | FYN 0 | GSK3A 0 | HER2 = 0 | INSRR 0

O=C(c1cccc(Cl)c1F)N1CCN(Cc2cccc(Nc3nccs3)n2)CC1 (2.5 µM)
inactive: ERN1 = 0 | FGFR1 = 0 | FGFR2 = 0 | FGFR3 = 0 | FGR 0 | FLT3 = 0 | FYN 0 | GSK3A 0 | HER2 = 0 | INSRR 0

O=c1cc(N2CCOCC2)oc2c(-c3ccc4c(c3)OCCO4)csc12 (2.5 µM)
inactive: ERN1 = 0 | FGFR1 = 0 | FGFR2 = 0 | FGFR3 = 0 | FGR 0 | FLT3 = 0 | FYN 0 | GSK3A 0 | HER2 = 0 | INSRR 0

O=c1cc(-c2ccccc2)oc2cc(O[C@@H]3O[C@H](CO[C@@H]4O[C@H](CO)[C@@H](O)[C@H](O)[C@H]4O)[C@@H](O)[C@H](O)[C@H]3O)c(O)c(O)c12 [Oroxin B] (10 µM)
inactive: ERN1 = 0 | FGFR1 = 0 | FGFR2 = 0 | FGFR3 = 0 | FGR 0 | FLT3 = 0 | FYN 0 | GSK3A 0 | HER2 = 0 | INSRR 0

COc1cc(-c2cc(-c3ccc(N4CCNCC4)cc3)cnc2C)cc(OC)c1OC (10 µM)
inactive: ERN1 = 0 | FGFR1 = 0 | FGFR2 = 0 | FGFR3 = 0 | FGR 0 | FLT3 = 0 | FYN 0 | GSK3A 0 | HER2 = 0 | INSRR 0

O=C(ON=C1c2ccccc2-c2nc3ccccc3nc21)c1ccco1 (2.5 µM)
inactive: ERN1 = 0 | FGFR1 = 0 | FGFR2 = 0 | FGFR3 = 0 | FGR 0 | FLT3 = 0 | FYN 0 | GSK3A 0 | HER2 = 0 | INSRR 0

N#Cc1ccc2ncnc(NCCc3ccccc3)c2c1 [Senexin A] (10 µM)
inactive: ERN1 = 0 | FGFR1 = 0 | FGFR2 = 0 | FGFR3 = 0 | FGR 0 | FLT3 = 0 | FYN 0 | GSK3A 0 | HER2 = 0 | INSRR 0

CC1=C(C(=O)Nc2cc3cn[nH]c3cc2F)C(c2ccc(C(F)(F)F)cc2)CC(=O)N1 (stereo not given) (10 µM)
inactive: ERN1 = 0 | FGFR1 = 0 | FGFR2 = 0 | FGFR3 = 0 | FGR 0 | FLT3 = 0 | FYN 0 | GSK3A 0 | HER2 = 0 | INSRR 0

CN1CCN(c2cc(-c3ccncc3)c(-c3ccc4ccccc4c3)nn2)CC1 (10 µM)
inactive: ERN1 = 0 | FGFR1 = 0 | FGFR2 = 0 | FGFR3 = 0 | FGR 0 | FLT3 = 0 | FYN 0 | GSK3A 0 | HER2 = 0 | INSRR 0

C[C@@H]1O[C@@H](Oc2cc(O)c3c(=O)c(O[C@@H]4O[C@@H](C)[C@H](O)[C@@H](O)[C@H]4O)c(-c4ccc(O)cc4)oc3c2)[C@H](O)[C@H](O)[C@H]1O [Kaempferitrin] (10 µM)
inactive: ERN1 = 0 | FGFR1 = 0 | FGFR2 = 0 | FGFR3 = 0 | FGR 0 | FLT3 = 0 | FYN 0 | GSK3A 0 | HER2 = 0 | INSRR 0

O=C(Nc1cc(Cl)cc2c1[nH]c1cnccc12)c1cccnc1 (10 µM)
inactive: ERN1 = 0 | FGFR1 = 0 | FGFR2 = 0 | FGFR3 = 0 | FGR 0 | FLT3 = 0 | FYN 0 | GSK3A 0 | HER2 = 0 | INSRR 0

Cn1cc(-c2cc(Oc3cc(F)c(NC(=O)C4(C(=O)Nc5ccccc5)CC4)cc3F)ccn2)cn1 (2.5 µM)
inactive: ERN1 = 0 | FGFR1 = 0 | FGFR2 = 0 | FGFR3 = 0 | FGR 0 | FLT3 = 0 | FYN 0 | GSK3A 0 | HER2 = 0 | INSRR 0

O=C(Nc1ccc(Cl)cc1)C1CCCN(C(=O)c2cc(C(F)(F)F)cc(C(F)(F)F)c2)C1 (stereo not given) (10 µM)
inactive: ERN1 = 0 | FGFR1 = 0 | FGFR2 = 0 | FGFR3 = 0 | FGR 0 | FLT3 = 0 | FYN 0 | GSK3A 0 | HER2 = 0 | INSRR 0

C#Cc1cccc(Nc2ncnc3cc(OC)c(NC(=O)N4C[C@H]5CCN(C)[C@H]5C4)cc23)c1 [Theliatinib] (10 µM)
inactive: ERN1 = 0 | FGFR1 = 0 | FGFR2 = 0 | FGFR3 = 0 | FGR 0 | FLT3 = 0 | FYN 0 | GSK3A 0 | HER2 = 0 | INSRR 0

Nc1ncc(C(=O)NC2CN(C(=O)C3CC3)C2)c2ccc(-c3cccc(F)c3)nc12 (2 µM)
inactive: ERN1 = 0 | FGFR1 = 0 | FGFR2 = 0 | FGFR3 = 0 | FGR 0 | FLT3 = 0 | FYN 0 | GSK3A 0 | HER2 = 0 | INSRR 0

CNC(=O)c1cc2c(Oc3ccc(NC(=O)C4(C(=O)Nc5ccc(F)cc5)CC4)cc3)ccnc2cc1OC (2.5 µM)
inactive: ERN1 = 0 | FGFR1 = 0 | FGFR2 = 0 | FGFR3 = 0 | FGR 0 | FLT3 = 0 | FYN 0 | GSK3A 0 | HER2 = 0 | INSRR 0

Pulled one by one from above, 2 records:
Cn1cc(-c2cc(Oc3cc(F)c(NC(=O)C4(C(=O)Nc5ccccc5)CC4)cc3F)ccn2)cn1 (2.5 µM)
inactive: ERN1 = 0 | FGFR1 = 0 | FGFR2 = 0 | FGFR3 = 0 | FGR 0 | FLT3 = 0 | FYN 0 | GSK3A 0 | HER2 = 0 | INSRR 0

CNC(=O)c1cc2c(Oc3ccc(NC(=O)C4(C(=O)Nc5ccc(F)cc5)CC4)cc3)ccnc2cc1OC (2.5 µM)
inactive: ERN1 = 0 | FGFR1 = 0 | FGFR2 = 0 | FGFR3 = 0 | FGR 0 | FLT3 = 0 | FYN 0 | GSK3A 0 | HER2 = 0 | INSRR 0

Next part:

COc1cc2cc(Oc3ccc4ccc(=O)oc4c3)c(=O)oc2cc1O [Daphnoretin] (10 µM)
inactive: ERN1 = 0 | FGFR1 = 0 | FGFR2 = 0 | FGFR3 = 0 | FGR 0 | FLT3 = 0 | FYN 0 | GSK3A 0 | HER2 = 0 | INSRR 0

Nc1ncnc2c1nc(Br)n2[C@@H]1O[C@@H]2COP(=O)(O)O[C@H]2[C@H]1O [8-Bromo-cAMP sodium salt] (10 µM)
inactive: ERN1 = 0 | FGFR1 = 0 | FGFR2 = 0 | FGFR3 = 0 | FGR 0 | FLT3 = 0 | FYN 0 | GSK3A 0 | HER2 = 0 | INSRR 0
